# Data from patent publication US20250145701A1.
# By UniProt entry, the sequences of proteins in these tests, tags left out. Where a name states a change or a piece, a line headed by the entry shows the natural chain unless it says otherwise. Chains listed by the source or under a name are the forms on record and can include a tag or linker.
# human VEGF-A (Example 1) (P15692, form named): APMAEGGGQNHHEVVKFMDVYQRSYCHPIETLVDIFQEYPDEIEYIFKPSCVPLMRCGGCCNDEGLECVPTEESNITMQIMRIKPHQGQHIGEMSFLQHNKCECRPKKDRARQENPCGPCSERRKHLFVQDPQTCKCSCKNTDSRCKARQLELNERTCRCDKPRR
# No constants are given. Whether binding was seen depends on the method and setting. Some results given as binding are weak or reduced against the parent protein; the word gives no strength. Tags and fused reporters may be left off the sequences shown.
# T1: mouse VEGF-A (mouse) (UniProt Q00731)
# T1 sequence (looked up): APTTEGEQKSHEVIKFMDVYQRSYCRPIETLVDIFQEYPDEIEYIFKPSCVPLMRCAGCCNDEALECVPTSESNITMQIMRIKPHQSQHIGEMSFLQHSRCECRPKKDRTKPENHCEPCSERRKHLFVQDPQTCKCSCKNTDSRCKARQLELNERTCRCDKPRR
# Columns and labels:
# [1] = target: human VEGF-A (Example 1) (human) (UniProt P15692); experiment: ELISA, VHH-Fc expression supernatant
# [2] = target: T1, mouse VEGF-A (mouse); experiment: ELISA, VHH-Fc expression supernatant
binder,measurement,setting,value
"Strain #6 VHH (tested as VHH-Fc) (Fc fusion, not shown: a dimerising Fc or GST) QVQLQESGGGLVQPGGSLRLSCAASGFTFSTSTMSWYRQAPGKERELVAFITSAGATTNYADSVKDRFTMSRDNDKNTVYLQMNVLKPEDTAMYYCRALVTLWNVYWGQGTQVTVSS",binding,[1],binds
same,binding,[2],binds
